Tests used:
[1] = test system: ovary-extracted mice (oophorectomized osteoporosis); assay: Animal experiment: oral administration to ovary-extracted mice on low-calcium feed, dry weight of femurs and tibia microscopy; format: in vivo, female ddY mice; conditions: once daily, five shots a week
Text: According to what is done conventionally, female ddY mice, 4-week-old, which had been grouped into 34 heads/group based on their body weight, were anesthetized with sodium pentobarbital, and extracted their ovaries. From the next day, the mice were orally administered with “TREHAOSE®”, a crystalline trehalose powder containing at least 98% trehalose, d.s.b., commercialized by Hayashibara Shoji, Inc, Okayama, Japan, which had been dissolved in distilled water, at a dose of 0.01, 0.1 or 1 g/kg body weight per shot once every day, five shots in a week. […] The feed used was a low-calcium feed for ease of making the difference of the bone content.
In parallel, the following control groups were provided and treated similarly as the group with trehalose: As control 1, a group in which mice were administered with the same amount of distilled water as the aqueous trehalose solution in place of the trehalose solution; as control 2, a group in which mice were administered with estradiol, as a therapeutic agent for osteoporosis, dissolved in the same amount of distilled water as the aqueous trehalose solution in place of the trehalose solution, at a dose of one mg/kg body weight/shot, two times a week; and as control 3, a group in which mice, which were received with a laparotomy pseudo-operation and not extracted their ovaries, were administered with the same amount of distilled water as the aqueous trehalose solution in place of the trehalose solution. Some of the mice administered with trehalose at a dose of 0.1 g/kg body weight/shot, and the mice in controls 1 and 3 as groups with no trehalose were extracted their tibias, followed by observing the tibias microscopically. The specimens for microscopic observation were prepared in the usual manner by immobilizing the extracted tibias with formalin solution, washed with water, delimed, split along with the long axis, and treated with protease K to remove bone marrow cells. The specimens of tibias were observed by a relatively-low vacuum electron-microscope under 24 magnifications, and photographed. […]

[2] = test system: ovary-extracted mice (oophorectomized osteoporosis); assay: Animal experiment: intravenous injection to ovary-extracted mice on low-calcium feed, dry weight of femurs and tibia microscopy; format: in vivo, female ddY mice; conditions: tail vein, 5 ml/kg body weight/shot, once daily, five times a week
Procedure: An injection containing 10 w/w % trehalose, obtained by the later described Example 7, was diluted with a phosphate buffered saline, which had been filtered with a membrane filter having a pore size of 0.22 μm (hereinafter abbreviated as “PBS”) into a 0.1 w/w % or 1 w/w % trehalose solution. These solutions and the above injection were used for test samples. According to what is done conventionally, female ddY mice, 4-week-old, which had been grouped into 34 heads/group based on their body weight, were anesthetized with sodium pentobarbital, and extracted their ovaries. From the next day, the mice were injected from their tail veins with any one of the test samples at a dose of 5 ml/kg body weight/shot, once every day and five times a week. […] The feed used was a low-calcium feed for ease of making the difference of the bone content.
In parallel, the following control groups were provided and treated similarly as the group with trehalose: As control 1, a group in which mice were administered with the same amount of PBS as the test samples in place of them; and as control 2, a group in which mice, that were received with a laparotomy pseudo-operation and were not extracted their ovaries, were administered with the same amount of PBS as the test samples in place of them. Some of the mice administered with trehalose using one w/w t trehalose solution, and the mice in controls 1 and 2 as non-trehalose administration groups were extracted their tibias, followed by observing the tibias microscopically. The specimens for microscopic observation were prepared in the usual manner by immobilizing the extracted tibias with formalin solution, washed with water, delimed, split along with the long axis, and treated with protease K to remove bone marrow cells. The specimens of tibias were observed by a relatively-low vacuum electron-microscope under 24 magnifications, and photographed. The data are respectively in FIGS. 4 to 6. In these figures, white parts are the trabecula of cancellous bone. […]

OC[C@H]1O[C@H](O[C@H]2O[C@H](CO)[C@@H](O)[C@H](O)[C@H]2O)[C@H](O)[C@@H](O)[C@@H]1O [Trehalose, trehalose] was tested, and the “Body weight when tibia was enucleated” value ([1]; oral 0.01 g/kg body weight/shot) was 31.7 ± 2.2 g, the “Body weight when tibia was enucleated” value ([1]; oral 0.1 g/kg body weight/shot) was 31.3 ± 2.4 g and the “Body weight when tibia was enucleated” value ([1]; oral 1 g/kg body weight/shot) was 32.0 ± 2.1 g. For the same compound, the “Body weight when tibia was enucleated” value ([2]; 0.1 w/w % trehalose solution) was 31.9 ± 2.0 g, the “Body weight when tibia was enucleated” value ([2]; 1 w/w % trehalose solution) was 32.0 ± 2.2 g and the “Body weight when tibia was enucleated” value ([2]; 10 w/w % trehalose injection) was 32.3 ± 2.1 g.
